This note sets out measurements from PMC10582465.

Sequences of proteins named here, by UniProt entry; tags and fusion partners are left off.
UniProt P19474: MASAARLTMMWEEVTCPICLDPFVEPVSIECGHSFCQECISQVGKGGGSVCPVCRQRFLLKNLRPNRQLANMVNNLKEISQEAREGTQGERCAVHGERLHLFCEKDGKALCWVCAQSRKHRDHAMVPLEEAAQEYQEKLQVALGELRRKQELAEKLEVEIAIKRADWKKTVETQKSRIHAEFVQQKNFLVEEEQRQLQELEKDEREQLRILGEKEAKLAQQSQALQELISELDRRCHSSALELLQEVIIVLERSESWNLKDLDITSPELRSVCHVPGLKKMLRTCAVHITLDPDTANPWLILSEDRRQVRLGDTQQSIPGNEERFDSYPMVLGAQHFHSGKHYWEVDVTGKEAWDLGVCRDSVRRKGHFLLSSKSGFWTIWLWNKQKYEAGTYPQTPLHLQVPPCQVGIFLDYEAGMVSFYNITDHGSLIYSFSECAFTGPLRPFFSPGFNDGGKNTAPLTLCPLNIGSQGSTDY

Assay [1] concerns the target T1, HA-FSP1 (in MHCC-97H) (human) (UniProt Q9BRQ8).
T1 sequence: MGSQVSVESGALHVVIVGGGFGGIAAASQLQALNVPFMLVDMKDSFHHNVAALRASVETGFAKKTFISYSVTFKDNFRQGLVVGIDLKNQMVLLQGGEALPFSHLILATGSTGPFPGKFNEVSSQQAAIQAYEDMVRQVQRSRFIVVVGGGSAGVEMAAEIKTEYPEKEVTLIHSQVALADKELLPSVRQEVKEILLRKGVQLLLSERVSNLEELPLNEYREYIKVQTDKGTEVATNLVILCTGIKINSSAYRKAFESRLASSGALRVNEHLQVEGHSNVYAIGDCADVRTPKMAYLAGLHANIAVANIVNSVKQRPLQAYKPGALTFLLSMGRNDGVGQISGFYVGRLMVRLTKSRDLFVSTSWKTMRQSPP
The experiment in a line: co-IP; MHCC-97H cells co-transfected with Flag-TRIM21 and HA-FSP1, treated with 1 µM RSL3 for 0-4 h; anti-HA antibodies; immunoblot. (A western blot detects proteins with antibodies after separation by electrophoresis.)

For assay [2], the target named is T2, HA-FSP1 (in HEK293T) (human) (UniProt Q9BRQ8).
T2 sequence: T1 sequence
The experiment in a line: co-IP; HEK293T cells transfected with HA- and Flag-tagged plasmids; anti-Flag or anti-HA antibodies with Protein A/G magnetic beads, 4 °C overnight; IP lysis buffer 20 mM Tris-HCl pH 7.4, 1 mM EDTA, 150 mM NaCl, 1% NP-40; immunoblot.

These are yes or no findings as the source states them, for the method shown. Binding seen in cells or lysates may run through a third protein. Some entries that bind do so weakly or less than the wild type. Tags and fused reporters may be left off the sequences shown.

Take “Flag-TRIM21 (in MHCC-97H) (from UniProt P19474 1-475)”: the binding result in assay [1] is on record as “binds”.
“Flag-TRIM21 (in HEK293T) (from UniProt P19474 1-475)”: the binding result in assay [2] is recorded as “binds”.
